# In the supplement of paper PMC12067093, “Discovery and optimisation of a covalent ligand for TRIM25 and its application to targeted protein ubiquitination” (Chemical Science, 2025):
# By UniProt entry, the sequences of proteins in these tests, tags left out. Where a name states a change or a piece, a line headed by the entry shows the natural chain unless it says otherwise.
# UniProt P18669: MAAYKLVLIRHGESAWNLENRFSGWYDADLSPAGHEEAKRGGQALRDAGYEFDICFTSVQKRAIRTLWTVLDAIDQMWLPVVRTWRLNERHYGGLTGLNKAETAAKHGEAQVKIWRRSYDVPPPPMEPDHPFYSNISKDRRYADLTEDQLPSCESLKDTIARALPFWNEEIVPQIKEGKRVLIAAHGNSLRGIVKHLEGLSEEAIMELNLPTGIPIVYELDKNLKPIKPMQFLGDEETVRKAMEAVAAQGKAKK
# UniProt Q9BRX2, whole entry, looked up: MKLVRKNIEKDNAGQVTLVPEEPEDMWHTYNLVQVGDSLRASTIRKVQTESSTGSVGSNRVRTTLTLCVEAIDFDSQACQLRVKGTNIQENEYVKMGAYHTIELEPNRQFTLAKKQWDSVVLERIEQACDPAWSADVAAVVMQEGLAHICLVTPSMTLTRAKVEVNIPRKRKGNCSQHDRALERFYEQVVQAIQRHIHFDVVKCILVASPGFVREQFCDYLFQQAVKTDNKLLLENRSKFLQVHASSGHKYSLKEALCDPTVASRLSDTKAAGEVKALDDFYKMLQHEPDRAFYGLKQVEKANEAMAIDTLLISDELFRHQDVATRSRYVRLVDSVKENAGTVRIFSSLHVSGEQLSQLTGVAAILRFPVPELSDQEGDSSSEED
# UniProt Q6ZUJ8: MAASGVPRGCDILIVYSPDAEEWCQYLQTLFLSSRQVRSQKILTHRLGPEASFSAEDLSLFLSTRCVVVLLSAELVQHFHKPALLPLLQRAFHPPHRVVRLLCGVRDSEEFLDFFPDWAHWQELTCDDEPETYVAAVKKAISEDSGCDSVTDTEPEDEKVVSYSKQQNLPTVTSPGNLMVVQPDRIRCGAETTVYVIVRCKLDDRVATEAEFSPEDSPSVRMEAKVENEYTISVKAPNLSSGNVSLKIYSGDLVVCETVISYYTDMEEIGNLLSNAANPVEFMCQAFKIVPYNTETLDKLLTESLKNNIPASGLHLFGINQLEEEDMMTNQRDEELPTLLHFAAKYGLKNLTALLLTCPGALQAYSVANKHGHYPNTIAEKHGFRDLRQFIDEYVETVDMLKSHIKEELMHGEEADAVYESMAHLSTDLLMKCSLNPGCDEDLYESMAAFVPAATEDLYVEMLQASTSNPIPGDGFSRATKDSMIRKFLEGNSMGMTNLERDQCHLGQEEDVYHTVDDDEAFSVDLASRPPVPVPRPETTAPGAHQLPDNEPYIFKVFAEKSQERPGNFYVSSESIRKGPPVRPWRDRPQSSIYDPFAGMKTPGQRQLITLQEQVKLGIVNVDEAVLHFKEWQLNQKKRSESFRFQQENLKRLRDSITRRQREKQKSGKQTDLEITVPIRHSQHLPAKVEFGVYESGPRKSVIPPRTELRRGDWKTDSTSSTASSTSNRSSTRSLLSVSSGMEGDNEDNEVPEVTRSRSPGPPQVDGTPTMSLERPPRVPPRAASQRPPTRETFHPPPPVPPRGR
# UniProt Q8IWS0: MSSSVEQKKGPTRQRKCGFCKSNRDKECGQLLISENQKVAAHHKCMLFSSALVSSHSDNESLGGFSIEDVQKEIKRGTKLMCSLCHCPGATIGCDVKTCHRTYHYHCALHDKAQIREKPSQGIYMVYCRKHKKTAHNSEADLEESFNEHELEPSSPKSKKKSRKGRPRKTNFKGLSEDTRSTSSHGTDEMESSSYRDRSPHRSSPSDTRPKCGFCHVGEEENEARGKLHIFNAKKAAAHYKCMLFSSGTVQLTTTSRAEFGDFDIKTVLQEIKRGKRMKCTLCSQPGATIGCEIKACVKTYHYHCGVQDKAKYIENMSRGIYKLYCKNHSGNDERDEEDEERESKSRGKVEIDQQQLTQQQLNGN
# UniProt Q8IUZ5: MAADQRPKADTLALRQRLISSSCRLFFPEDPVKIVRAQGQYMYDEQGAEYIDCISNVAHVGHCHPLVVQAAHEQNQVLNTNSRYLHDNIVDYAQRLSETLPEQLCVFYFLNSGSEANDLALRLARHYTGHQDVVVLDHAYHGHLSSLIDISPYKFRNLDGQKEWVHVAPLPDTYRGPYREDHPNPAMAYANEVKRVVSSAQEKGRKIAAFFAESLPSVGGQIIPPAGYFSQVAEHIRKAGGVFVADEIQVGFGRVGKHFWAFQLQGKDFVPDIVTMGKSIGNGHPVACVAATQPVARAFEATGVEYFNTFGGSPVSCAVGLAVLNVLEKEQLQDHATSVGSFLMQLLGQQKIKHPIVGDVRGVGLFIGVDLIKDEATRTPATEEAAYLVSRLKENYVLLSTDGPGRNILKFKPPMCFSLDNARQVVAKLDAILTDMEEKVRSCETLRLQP
# UniProt P46020: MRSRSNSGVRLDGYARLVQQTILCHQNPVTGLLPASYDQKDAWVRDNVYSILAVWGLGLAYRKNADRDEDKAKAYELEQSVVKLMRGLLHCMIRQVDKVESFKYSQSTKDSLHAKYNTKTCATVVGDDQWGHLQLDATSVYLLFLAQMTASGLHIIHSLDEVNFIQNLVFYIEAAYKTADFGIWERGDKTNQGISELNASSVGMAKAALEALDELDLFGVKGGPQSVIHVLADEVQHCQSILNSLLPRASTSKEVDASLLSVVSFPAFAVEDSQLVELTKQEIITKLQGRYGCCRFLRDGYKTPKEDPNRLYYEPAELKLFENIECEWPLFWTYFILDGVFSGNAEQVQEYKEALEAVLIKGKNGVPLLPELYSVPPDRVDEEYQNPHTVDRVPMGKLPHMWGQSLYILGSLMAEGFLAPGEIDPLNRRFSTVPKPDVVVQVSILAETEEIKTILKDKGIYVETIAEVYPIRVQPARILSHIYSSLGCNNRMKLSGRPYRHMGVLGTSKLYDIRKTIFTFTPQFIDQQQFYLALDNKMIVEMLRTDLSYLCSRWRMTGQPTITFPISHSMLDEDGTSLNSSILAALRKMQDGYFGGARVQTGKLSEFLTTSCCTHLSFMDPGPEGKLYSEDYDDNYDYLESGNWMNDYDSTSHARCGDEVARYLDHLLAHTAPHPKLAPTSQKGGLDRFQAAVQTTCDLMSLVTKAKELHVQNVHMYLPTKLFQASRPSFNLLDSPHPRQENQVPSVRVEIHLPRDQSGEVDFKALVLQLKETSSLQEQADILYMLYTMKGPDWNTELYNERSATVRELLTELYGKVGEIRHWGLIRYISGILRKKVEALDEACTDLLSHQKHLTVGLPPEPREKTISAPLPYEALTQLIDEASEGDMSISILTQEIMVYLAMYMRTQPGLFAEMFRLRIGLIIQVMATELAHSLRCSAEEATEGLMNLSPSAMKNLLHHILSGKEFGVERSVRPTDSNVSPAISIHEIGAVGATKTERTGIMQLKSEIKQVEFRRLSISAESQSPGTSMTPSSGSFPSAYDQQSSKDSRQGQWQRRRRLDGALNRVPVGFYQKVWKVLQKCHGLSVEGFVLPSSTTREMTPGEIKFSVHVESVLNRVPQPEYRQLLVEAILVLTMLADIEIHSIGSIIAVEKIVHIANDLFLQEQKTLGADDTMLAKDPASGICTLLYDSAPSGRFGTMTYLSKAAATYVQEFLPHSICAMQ
# UniProt P46019: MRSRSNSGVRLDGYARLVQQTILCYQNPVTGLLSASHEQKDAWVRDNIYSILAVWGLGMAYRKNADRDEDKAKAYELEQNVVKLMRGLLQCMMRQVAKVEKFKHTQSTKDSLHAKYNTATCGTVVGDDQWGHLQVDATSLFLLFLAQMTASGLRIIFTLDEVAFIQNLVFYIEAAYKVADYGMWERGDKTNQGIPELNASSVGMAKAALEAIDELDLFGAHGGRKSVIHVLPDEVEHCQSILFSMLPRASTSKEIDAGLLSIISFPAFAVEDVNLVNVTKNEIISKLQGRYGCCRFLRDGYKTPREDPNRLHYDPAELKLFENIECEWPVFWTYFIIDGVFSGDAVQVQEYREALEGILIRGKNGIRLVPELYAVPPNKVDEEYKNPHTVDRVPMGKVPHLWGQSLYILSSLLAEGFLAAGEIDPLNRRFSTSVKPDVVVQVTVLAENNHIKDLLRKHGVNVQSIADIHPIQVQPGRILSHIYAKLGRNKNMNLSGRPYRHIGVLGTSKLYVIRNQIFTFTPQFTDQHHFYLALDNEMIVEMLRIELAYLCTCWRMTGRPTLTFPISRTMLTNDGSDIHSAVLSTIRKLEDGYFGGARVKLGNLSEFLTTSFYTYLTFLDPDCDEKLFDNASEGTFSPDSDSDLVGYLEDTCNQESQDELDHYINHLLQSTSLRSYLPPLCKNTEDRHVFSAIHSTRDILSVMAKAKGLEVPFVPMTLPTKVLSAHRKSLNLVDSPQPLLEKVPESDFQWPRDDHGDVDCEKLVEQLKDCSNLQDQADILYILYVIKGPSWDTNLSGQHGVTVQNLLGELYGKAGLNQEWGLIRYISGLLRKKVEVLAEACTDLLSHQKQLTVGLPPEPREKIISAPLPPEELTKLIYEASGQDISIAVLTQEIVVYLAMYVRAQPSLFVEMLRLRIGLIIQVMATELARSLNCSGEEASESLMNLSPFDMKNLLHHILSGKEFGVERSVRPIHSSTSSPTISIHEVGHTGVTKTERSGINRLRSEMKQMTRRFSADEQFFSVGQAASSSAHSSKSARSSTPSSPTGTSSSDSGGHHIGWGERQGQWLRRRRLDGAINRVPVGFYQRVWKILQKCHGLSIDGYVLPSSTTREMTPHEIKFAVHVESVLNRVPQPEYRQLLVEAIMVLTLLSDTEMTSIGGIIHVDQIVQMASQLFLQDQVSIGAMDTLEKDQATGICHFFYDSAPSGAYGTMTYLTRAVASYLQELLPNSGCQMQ
# UniProt Q7RTV0, whole entry, looked up: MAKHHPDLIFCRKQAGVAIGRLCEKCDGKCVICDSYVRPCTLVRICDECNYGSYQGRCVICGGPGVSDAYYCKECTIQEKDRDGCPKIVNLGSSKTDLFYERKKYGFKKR
# UniProt Q9NRD5, whole entry: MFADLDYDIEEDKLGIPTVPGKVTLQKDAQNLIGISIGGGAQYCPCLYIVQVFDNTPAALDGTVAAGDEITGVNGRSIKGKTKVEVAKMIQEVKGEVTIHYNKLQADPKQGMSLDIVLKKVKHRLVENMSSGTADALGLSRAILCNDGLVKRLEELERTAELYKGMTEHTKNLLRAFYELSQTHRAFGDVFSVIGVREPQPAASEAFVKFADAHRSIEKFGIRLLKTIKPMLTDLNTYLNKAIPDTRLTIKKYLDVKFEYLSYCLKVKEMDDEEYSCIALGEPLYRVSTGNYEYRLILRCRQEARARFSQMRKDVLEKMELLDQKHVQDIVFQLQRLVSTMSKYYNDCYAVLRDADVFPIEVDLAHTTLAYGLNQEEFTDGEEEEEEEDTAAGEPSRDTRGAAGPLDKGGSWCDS
# UniProt Q96BD5: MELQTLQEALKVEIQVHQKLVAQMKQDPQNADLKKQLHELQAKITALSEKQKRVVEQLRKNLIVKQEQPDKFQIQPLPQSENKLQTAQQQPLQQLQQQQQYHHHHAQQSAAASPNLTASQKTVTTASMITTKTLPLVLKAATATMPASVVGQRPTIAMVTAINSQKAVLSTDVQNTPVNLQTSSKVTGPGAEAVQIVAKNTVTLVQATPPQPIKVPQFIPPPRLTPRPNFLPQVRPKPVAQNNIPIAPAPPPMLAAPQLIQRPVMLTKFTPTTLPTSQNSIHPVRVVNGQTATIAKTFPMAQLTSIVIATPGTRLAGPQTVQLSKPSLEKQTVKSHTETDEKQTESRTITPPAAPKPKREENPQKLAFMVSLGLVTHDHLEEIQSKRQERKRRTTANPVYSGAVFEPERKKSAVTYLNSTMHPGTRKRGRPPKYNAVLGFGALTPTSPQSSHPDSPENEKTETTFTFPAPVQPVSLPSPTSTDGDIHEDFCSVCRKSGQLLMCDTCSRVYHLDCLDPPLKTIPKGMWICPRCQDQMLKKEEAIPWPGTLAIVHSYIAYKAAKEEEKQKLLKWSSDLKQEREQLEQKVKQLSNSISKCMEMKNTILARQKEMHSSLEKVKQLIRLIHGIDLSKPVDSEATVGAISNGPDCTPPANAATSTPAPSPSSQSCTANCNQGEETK
# UniProt P07737, whole entry, looked up: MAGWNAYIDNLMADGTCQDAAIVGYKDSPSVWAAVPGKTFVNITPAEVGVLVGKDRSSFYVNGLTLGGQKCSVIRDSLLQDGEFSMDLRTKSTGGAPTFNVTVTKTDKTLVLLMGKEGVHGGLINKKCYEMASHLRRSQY
# UniProt P37287: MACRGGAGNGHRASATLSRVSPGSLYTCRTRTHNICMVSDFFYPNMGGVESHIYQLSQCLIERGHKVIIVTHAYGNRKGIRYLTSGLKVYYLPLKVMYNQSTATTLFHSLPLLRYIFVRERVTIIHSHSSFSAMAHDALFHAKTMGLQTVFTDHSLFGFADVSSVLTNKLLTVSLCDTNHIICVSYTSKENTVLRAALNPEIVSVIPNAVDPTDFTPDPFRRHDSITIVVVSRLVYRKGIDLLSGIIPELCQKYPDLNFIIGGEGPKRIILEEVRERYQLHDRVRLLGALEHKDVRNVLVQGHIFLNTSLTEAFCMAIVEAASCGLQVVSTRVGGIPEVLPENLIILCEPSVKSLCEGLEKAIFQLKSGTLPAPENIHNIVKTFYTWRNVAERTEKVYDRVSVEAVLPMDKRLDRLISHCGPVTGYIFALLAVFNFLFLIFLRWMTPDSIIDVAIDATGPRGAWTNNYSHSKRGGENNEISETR
# Some of the results follow.
# Compound: CC1Cc2ccccc2N1C(=O)C1CCCN(C1)C(=O)CCl (mixture of isomers) [TRIM25 ligand 11 (diastereomer mixture)]
# Assay: probe-labelled cysteine peptide fold change vs DMSO (competition) (log2 fold change); higher = less target engagement (more negative = stronger competition)
# Conditions: 10 µM; THP-1; incubation time: 4 h
# 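Further: competitive chemoproteomic profiling in live THP-1 cells with an iodoacetamide desthiobiotin (IA-DTB) probe, comparing probe-labelled peptide intensities in compound-treated cells against DMSO-treated controls.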
row,Target,probe-labelled cysteine peptide fold change
1,PFKFB3_Q16875_178_DCNSAEAMDDFMK (UniProt Q16875),-0.0401
2,PGK1_P00558_367+379_GCITIIGGGDTATCCAK (UniProt P00558),0.0105
3,PHGDH_O43175_295_CGEEIAVQFVDMVK (UniProt O43175),-0.0517
4,PGAM1_P18669_153_RYADLTEDQLPSCESLK (UniProt P18669),-0.176
5,PGD_P52209_170+171_VGTGEPCCDWVGDEGAGHFVK (UniProt P52209),-0.0163
6,PHIP_Q8WWQ0_28_FLEDGPCQQAAQVLIR (UniProt Q8WWQ0),-0.0249
7,PFAS_O15067_1044_MGPSYCLPPTFPK (UniProt O15067),-0.0629
8,PFAS_O15067_606_IVLVDDRECPVR (UniProt O15067),0.275
9,PHF2_O75151_8_ATVPVYCVCR (UniProt O75151),0.0168
10,PELO_Q9BRX2_204_CILVASPGFVR (UniProt Q9BRX2),0.0971
11,PIK3AP1_Q6ZUJ8_147_AISEDSGCDSVTDTEPEDEK (UniProt Q6ZUJ8),0.0823
12,PHF6_Q8IWS0_94_LMCSLCHCPGATIGCDVK (UniProt Q8IWS0),0.0517
13,PHYKPL_Q8IUZ5_288_SIGNGHPVACVAATQPVAR (UniProt Q8IUZ5),0.23
14,PHF3_Q92576_885_ESTTVTCTGEK (UniProt Q92576),0.0091
15,PFKFB3_Q16875_387_QENVLVICHQAVLR (UniProt Q16875),0.175
16,PGAM1_P18669_153_YADLTEDQLPSCESLK (UniProt P18669),-0.0451
17,PHKA1_P46020_697_FQAAVQTTCDLMSLVTK (UniProt P46020),-0.0847
18,PGM2_Q96G03_86_MNDLTIIQTTQGFCR (UniProt Q96G03),-0.0764
19,PFKP_Q01813_343_MGVEAVIALLEATPDTPACVVSLNGNHAVR (UniProt Q01813),-0.264

row,Target,probe-labelled cysteine peptide fold change
1,PFAS_O15067_336_DVQCTGR (UniProt O15067),-0.0475
2,PHGDH_O43175_18_VLISDSLDPCCR (UniProt O43175),0.394
3,PHKA2_P46019_238_SVIHVLPDEVEHCQSILFSMLPR (UniProt P46019),-0.00236
4,PHF5A_Q7RTV0_40_CVICDSYVRPCTLVR (UniProt Q7RTV0),0.0445
5,PICK1_Q9NRD5_145_AILCNDGLVK (UniProt Q9NRD5),0.096
6,PHF20_Q9BVI0_840_SVEESYITSEHCYQK (UniProt Q9BVI0),-0.0843
7,PHF21A_Q96BD5_514_VYHLDCLDPPLK (UniProt Q96BD5),-0.079
8,PHF14_O94880_754_LHYHLGCLDPPLTR (UniProt O94880),0.0426
9,PHF1_O43189_139_QCVFAIATK (UniProt O43189),0.0808
10,PFN1_P07737_128_KCYEMASHLR (UniProt P07737),-0.517
11,PHGDH_O43175_18_KVLISDSLDPCCR (UniProt O43175),-0.318
12,PELP1_Q8IZL8_191_DISMNHLPGLLTSLLGLRPECEQSALEGMK (UniProt Q8IZL8),-0.0195
13,PFKP_Q01813_123_GITNLCVIGGDGSLTGANLFR (UniProt Q01813),-0.0831
14,PGK1_P00558_380_GCITIIGGGDTATCCAK (UniProt P00558),-0.111
15,PECAM1_P16284_572_EQEGEYYCTAFNR (UniProt P16284),-0.0892
16,PEX3_P56589_337_IIPIVNGQIHSVCSETPSHFVQDLLTMEQVK (UniProt P56589),0.0747
17,PHPT1_Q9NRX4_71_QGCDCECLGGGR (UniProt Q9NRX4),-0.0941
18,PIGA_P37287_348_VGGIPEVLPENLIILCEPSVK (UniProt P37287),-0.0812

# Same assay, conditions: 50 µM; THP-1; incubation time: 4 h
row,Target,probe-labelled cysteine peptide fold change
1,PFKFB3_Q16875_178_DCNSAEAMDDFMK (UniProt Q16875),-0.0121
2,PGK1_P00558_367+379_GCITIIGGGDTATCCAK (UniProt P00558),0.315
3,PHGDH_O43175_295_CGEEIAVQFVDMVK (UniProt O43175),-0.147
4,PGAM1_P18669_153_RYADLTEDQLPSCESLK (UniProt P18669),-0.215
5,PGD_P52209_170+171_VGTGEPCCDWVGDEGAGHFVK (UniProt P52209),-0.204
6,PHIP_Q8WWQ0_28_FLEDGPCQQAAQVLIR (UniProt Q8WWQ0),-0.00825
7,PFAS_O15067_1044_MGPSYCLPPTFPK (UniProt O15067),-0.204
8,PFAS_O15067_606_IVLVDDRECPVR (UniProt O15067),0.151
9,PHF2_O75151_8_ATVPVYCVCR (UniProt O75151),0.352
10,PELO_Q9BRX2_204_CILVASPGFVR (UniProt Q9BRX2),0.146
11,PIK3AP1_Q6ZUJ8_147_AISEDSGCDSVTDTEPEDEK (UniProt Q6ZUJ8),-0.0712
12,PHF6_Q8IWS0_94_LMCSLCHCPGATIGCDVK (UniProt Q8IWS0),-0.332
13,PHYKPL_Q8IUZ5_288_SIGNGHPVACVAATQPVAR (UniProt Q8IUZ5),0.0458
14,PHF3_Q92576_885_ESTTVTCTGEK (UniProt Q92576),-0.288
15,PFKFB3_Q16875_387_QENVLVICHQAVLR (UniProt Q16875),0.248
16,PGAM1_P18669_153_YADLTEDQLPSCESLK (UniProt P18669),0.0509
17,PHKA1_P46020_697_FQAAVQTTCDLMSLVTK (UniProt P46020),-0.109
18,PGM2_Q96G03_86_MNDLTIIQTTQGFCR (UniProt Q96G03),-0.0732
19,PFKP_Q01813_343_MGVEAVIALLEATPDTPACVVSLNGNHAVR (UniProt Q01813),-0.229

row,Target,probe-labelled cysteine peptide fold change
1,PFAS_O15067_336_DVQCTGR (UniProt O15067),-0.0576
2,PHGDH_O43175_18_VLISDSLDPCCR (UniProt O43175),0.234
3,PHKA2_P46019_238_SVIHVLPDEVEHCQSILFSMLPR (UniProt P46019),-0.205
4,PHF5A_Q7RTV0_40_CVICDSYVRPCTLVR (UniProt Q7RTV0),-0.0427
5,PICK1_Q9NRD5_145_AILCNDGLVK (UniProt Q9NRD5),-0.00768
6,PHF20_Q9BVI0_840_SVEESYITSEHCYQK (UniProt Q9BVI0),-0.0751
7,PHF21A_Q96BD5_514_VYHLDCLDPPLK (UniProt Q96BD5),-0.00554
8,PHF14_O94880_754_LHYHLGCLDPPLTR (UniProt O94880),-0.0191
9,PHF1_O43189_139_QCVFAIATK (UniProt O43189),0.0537
10,PFN1_P07737_128_KCYEMASHLR (UniProt P07737),-0.414
11,PHGDH_O43175_18_KVLISDSLDPCCR (UniProt O43175),-0.211
12,PELP1_Q8IZL8_191_DISMNHLPGLLTSLLGLRPECEQSALEGMK (UniProt Q8IZL8),-0.128
13,PFKP_Q01813_123_GITNLCVIGGDGSLTGANLFR (UniProt Q01813),-0.144
14,PGK1_P00558_380_GCITIIGGGDTATCCAK (UniProt P00558),0.0148
15,PECAM1_P16284_572_EQEGEYYCTAFNR (UniProt P16284),-0.146
16,PEX3_P56589_337_IIPIVNGQIHSVCSETPSHFVQDLLTMEQVK (UniProt P56589),-0.187
17,PHPT1_Q9NRX4_71_QGCDCECLGGGR (UniProt Q9NRX4),0.0226
18,PIGA_P37287_348_VGGIPEVLPENLIILCEPSVK (UniProt P37287),-0.216
